In PMC5974431:

T1: flag-2×HA-TIN2L-R282H+S396A (human) (UniProt Q9BSI4)
T1 sequence: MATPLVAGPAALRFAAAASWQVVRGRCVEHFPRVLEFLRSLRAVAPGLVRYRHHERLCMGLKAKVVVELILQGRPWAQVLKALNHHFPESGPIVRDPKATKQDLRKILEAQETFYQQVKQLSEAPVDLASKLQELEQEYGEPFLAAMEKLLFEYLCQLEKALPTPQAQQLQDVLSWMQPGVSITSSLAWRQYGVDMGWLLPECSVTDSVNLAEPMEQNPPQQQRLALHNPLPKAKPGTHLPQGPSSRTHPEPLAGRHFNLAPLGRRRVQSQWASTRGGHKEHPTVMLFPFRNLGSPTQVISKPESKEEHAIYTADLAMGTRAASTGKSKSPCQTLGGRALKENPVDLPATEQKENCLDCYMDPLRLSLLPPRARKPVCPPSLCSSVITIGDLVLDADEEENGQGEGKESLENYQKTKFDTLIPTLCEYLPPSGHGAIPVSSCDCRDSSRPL

T2: flag-2×HA-TIN2L-S396A (human) (UniProt Q9BSI4)
T2 sequence: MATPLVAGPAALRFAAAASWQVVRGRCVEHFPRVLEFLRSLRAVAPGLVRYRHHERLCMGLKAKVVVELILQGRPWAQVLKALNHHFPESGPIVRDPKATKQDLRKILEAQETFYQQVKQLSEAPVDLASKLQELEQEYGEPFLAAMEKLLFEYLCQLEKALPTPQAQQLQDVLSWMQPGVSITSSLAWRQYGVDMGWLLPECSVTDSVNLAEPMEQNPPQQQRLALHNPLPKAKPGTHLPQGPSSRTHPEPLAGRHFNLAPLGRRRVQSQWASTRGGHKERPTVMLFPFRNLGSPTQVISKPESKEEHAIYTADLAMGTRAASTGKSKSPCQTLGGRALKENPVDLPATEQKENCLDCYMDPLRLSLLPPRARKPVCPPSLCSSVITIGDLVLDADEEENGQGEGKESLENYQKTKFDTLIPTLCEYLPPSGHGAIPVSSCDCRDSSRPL

T3: flag-2×HA-TIN2S (human) (UniProt Q9BSI4)
T3 sequence: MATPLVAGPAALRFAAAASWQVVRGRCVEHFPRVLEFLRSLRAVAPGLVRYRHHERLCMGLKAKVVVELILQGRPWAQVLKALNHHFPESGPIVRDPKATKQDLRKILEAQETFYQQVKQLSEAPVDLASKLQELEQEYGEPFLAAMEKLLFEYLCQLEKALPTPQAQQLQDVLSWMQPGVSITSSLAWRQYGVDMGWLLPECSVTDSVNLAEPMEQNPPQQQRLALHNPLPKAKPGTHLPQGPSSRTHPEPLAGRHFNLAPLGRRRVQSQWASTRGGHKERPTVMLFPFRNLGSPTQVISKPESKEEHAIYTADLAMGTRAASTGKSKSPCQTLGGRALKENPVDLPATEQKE

T4: flag-2×HA-TIN2L-S396E (human) (UniProt Q9BSI4)
T4 sequence: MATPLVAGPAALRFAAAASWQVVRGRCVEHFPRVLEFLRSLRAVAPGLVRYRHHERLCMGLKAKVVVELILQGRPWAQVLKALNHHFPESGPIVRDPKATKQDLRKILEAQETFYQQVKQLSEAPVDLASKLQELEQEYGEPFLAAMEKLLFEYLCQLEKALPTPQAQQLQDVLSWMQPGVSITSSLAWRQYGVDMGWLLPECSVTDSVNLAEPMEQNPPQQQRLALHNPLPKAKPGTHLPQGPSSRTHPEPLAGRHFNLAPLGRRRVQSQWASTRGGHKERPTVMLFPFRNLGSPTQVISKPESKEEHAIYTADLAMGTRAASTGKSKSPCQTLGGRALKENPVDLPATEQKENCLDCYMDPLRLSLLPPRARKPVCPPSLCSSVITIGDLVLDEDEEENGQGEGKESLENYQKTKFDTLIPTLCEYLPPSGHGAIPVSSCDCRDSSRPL

T5: flag-2×HA-TIN2L-R282H (human) (UniProt Q9BSI4)
T5 sequence (chain, R282H did not affect TIN2L phosphorylation (Phos-tag)): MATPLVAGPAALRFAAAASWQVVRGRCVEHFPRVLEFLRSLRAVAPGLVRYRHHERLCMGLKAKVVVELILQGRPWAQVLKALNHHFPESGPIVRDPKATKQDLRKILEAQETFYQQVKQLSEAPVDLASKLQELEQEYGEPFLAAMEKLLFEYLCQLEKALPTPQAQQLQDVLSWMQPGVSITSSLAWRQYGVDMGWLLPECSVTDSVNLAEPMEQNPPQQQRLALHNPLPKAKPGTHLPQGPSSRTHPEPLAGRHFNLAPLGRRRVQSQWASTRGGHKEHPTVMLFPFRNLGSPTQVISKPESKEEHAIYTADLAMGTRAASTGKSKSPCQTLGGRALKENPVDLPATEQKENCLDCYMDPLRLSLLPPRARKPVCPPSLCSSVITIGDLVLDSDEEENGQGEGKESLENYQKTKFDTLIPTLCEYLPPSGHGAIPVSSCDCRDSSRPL

T6: flag-2×HA-TIN2S-R282H (human) (UniProt Q9BSI4)
T6 sequence: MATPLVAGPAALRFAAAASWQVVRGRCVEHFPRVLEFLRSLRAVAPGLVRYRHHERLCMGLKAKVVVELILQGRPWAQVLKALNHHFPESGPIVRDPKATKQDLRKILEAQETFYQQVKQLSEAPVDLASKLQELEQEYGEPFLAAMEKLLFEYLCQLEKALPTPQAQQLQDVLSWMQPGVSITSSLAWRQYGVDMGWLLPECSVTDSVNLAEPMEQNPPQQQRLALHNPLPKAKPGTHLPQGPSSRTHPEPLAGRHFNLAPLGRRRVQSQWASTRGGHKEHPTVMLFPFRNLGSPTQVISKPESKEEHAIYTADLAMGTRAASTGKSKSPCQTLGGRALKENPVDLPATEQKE


Legend:
[1] = biological target: T1, flag-2×HA-TIN2L-R282H+S396A (human); experiment: co-IP; HEK 293T cells cotransfected with 5 μg of each plasmid, lysed after 24 h (lysis buffer with 400 mM NaCl, 1% Triton X-100, 0.1% SDS, then an equal amount of water); supernatants incubated overnight at 4°C with anti-FLAG M2 magnetic beads or anti-Myc 9E10; immunoblot; the co-precipitated TRF1, TRF2 or TPP1 divided by the TIN2 precipitated and normalised to TIN2S
[2] = biological target: T2, flag-2×HA-TIN2L-S396A (human); experiment: as above
[3] = biological target: T3, flag-2×HA-TIN2S (human); experiment: as above
[4] = biological target: T4, flag-2×HA-TIN2L-S396E (human); experiment: as above
[5] = biological target: T5, flag-2×HA-TIN2L-R282H (human); experiment: as above
[6] = biological target: T6, flag-2×HA-TIN2S-R282H (human); experiment: as above
[7] = biological target: V1-TRF2; experiment: split reporter; protein fragment complementation assay (PCA) with split Venus: TIN2L fused with V2 (C-terminal half), TRF2 with V1 (N-terminal half), cotransfected; fluorescence measured

binding [1]	binding [2]	binding [3]	binding [4]	binding [5]	binding [6]	binding [7]	Molecule
binds	binds	binds	binds	binds	binds		myc-TRF2
		binds					myc-TRF2-F120A
						binds	TIN2L-V2 (protein, UniProt Q9BSI4-1 1-451) MATPLVAGPAALRFAAAASWQVVRGRCVEHFPRVLEFLRSLRAVAPGLVRYRHHERLCMGLKAKVVVELILQGRPWAQVLKALNHHFPESGPIVRDPKATKQDLRKILEAQETFYQQVKQLSEAPVDLASKLQELEQEYGEPFLAAMEKLLFEYLCQLEKALPTPQAQQLQDVLSWMQPGVSITSSLAWRQYGVDMGWLLPECSVTDSVNLAEPMEQNPPQQQRLALHNPLPKAKPGTHLPQGPSSRTHPEPLAGRHFNLAPLGRRRVQSQWASTRGGHKERPTVMLFPFRNLGSPTQVISKPESKEEHAIYTADLAMGTRAASTGKSKSPCQTLGGRALKENPVDLPATEQKENCLDCYMDPLRLSLLPPRARKPVCPPSLCSSVITIGDLVLDSDEEENGQGEGKESLENYQKTKFDTLIPTLCEYLPPSGHGAIPVSSCDCRDSSRPL

No constants are given. Whether binding was seen depends on the method and setting. In cells and extracts the contact can be indirect. Binding calls can cover weak binding; strength is not graded here. For some assays here: Sequences can lack the tags named with a protein.
